From patent US11571426B2, “Compositions for preventing or treating lupus” (CHONG KUN DANG PHARMACEUTICAL CORP., priority 2017, dated 2023)
For some assays here: At least one structure is not confirmed: it was looked up by name or label, or the drawing left a doubt. Some results were stated once for a whole list of compounds, not compound by compound.

Assays:
[1] = tested on: CTLA4 (cytotoxic T-lymphocyte-associated protein 4) in the regulatory T cells; test: CTLA4 expression in regulatory T cells (flow cytometry); format: cell-based, mouse; settings: concentration of 500 nM or more
Description: To identify if the compounds according to the present invention regulate a function of regulatory T cells in immune responses, compounds 255, 280, 374, 416 and 476 were treated, and then an expression level of an immune checkpoint receptor CTLA4 (cytotoxic T-lymphocyte-associated protein 4) in the regulatory T cells was measured by means of flow cytometry.
Specifically, a six-week old C57BL6 male mice were supplied from Central Lab Animal Inc., then acclimated for one week, and then used in an experiment. A spleen was isolated from the mouse, and then treated with collagenase D (Roche, 11088866001), such that splenocytes were isolated therefrom. CD4+CD25− T cells were isolated by means of a CD4+CD25+ regulatory T cell isolation kit (Miltenyi Biotec, 130-091-041), and then CD4+CD25− T cells (at a ratio of 5×10^5 cells/well) were treated with an anti-CD3c/anti-CD28 mAb bead (T cell activation/expansion kit, Miltenyi Biotec, 130-093627) and a mouse recombinant TGF-β2 for six days, such that they were differentiated into iTreg. A test drug was simultaneously treated for six days, during which the cells were differentiated into iTreg. After that, the cells were incubated by means of anti-CD^4/anti-CD25 mAb (eBioscience, 25-0042-82, 17-0251-82) at 4° C. for 20 minutes, and then labeling was performed. For intracytoplasmic staining, permeabilization was performed by means of Fix/permeabilization buffer (eBioscience, 00-5523-00), then labeling was performed by means of anti-FOXP3-Alexafluor488 (eBioscience, 53-5773-82) and anti-CTLA4-PE (eBioscience, 12-1522-82), and then flow cytometry was performed by means of FACS LSR Fortessa (BD bioscience).

NZB/W F1 female mice [2] = test: Survival rate in SLE model mouse; format: in vivo; settings: positive control 5 mg/kg/day; vs negative control
Description: (§1) 80 NZB/W F1 female mice (four weeks old) were purchased from Jackson Laboratory and maintained in an SPF breeding room with five mice per cage. Their weight and urine protein were measured at 24 weeks after birth (right before administration), and then all the animals except those having too much urine protein were divided into groups as shown in a table 2 below such that the urine protein and weight might be evenly distributed among the groups.
(§2) Then, the mice were administered as described in the table 2 once a day for about 19 weeks from 24 weeks after birth to 42 weeks after birth.
An NZB/W F1 female mouse is used as a human SLE disease model. If not treated at all, it is known that this model falls dead all after 12 months or so (about 52 weeks old) due to immune-complex glomerulonephritis.

NZB/W F1 female mice [3] = test: Weight recovery in SLE model mouse; format: in vivo; settings: positive control 5 mg/kg/day i.p.; after 36 weeks old; vs negative control
Description: as §1, §2

| SMILES | T cells with increased CTLA4 expression [1] | survival rate pattern (NZB/W F1 female mice [2]) | weight recovery (NZB/W F1 female mice [3]) |
| --- | --- | --- | --- |
| O=C(NO)c1ccc(CN(C(=O)N2CCOCC2)c2cccc(C(F)(F)F)c2)cc1 [Compound 374, N-(4-(hydroxycarbamoyl)benzyl)-N-(3-(trifluoromethyl)phenyl)morpholine-4-carboxamide] | ≥ 40% |  |  |
| O=C(NO)c1ccc(CN(C(=O)N2CC(F)(F)C2)c2cccc(C(F)(F)F)c2)cc1 [Compound 476, 3,3-difluoro-N-(4-(hydroxycarbamoyl)benzyl)-N-(3-(trifluoromethyl)phenyl)azetidine-1-carboxamide] | ≥ 40% |  |  |
| O=C(NO)c1ccc(CN(C(=O)N2CCOCC2)c2cccc(Br)c2)cc1 [Compound 255, N-(3-bromophenyl)-N-(4-(hydroxycarbamoyl)benzyl)morpholine-4-carboxamide] | ≥ 40% |  |  |
| C[C@H]1C[C@@H]2[C@H]([C@@H](O)C[C@@]3(C)[C@H]2CC[C@]3(O)C(=O)CO)[C@@]2(C)C=CC(=O)C=C12 [Methylprednisolone, reference compound] |  | better recovery pattern | more salient weight recovery effect |
